The experiment addresses T1, GST-tagged USP8 MIT domain (1-142) (human) (UniProt P40818).
T1 sequence: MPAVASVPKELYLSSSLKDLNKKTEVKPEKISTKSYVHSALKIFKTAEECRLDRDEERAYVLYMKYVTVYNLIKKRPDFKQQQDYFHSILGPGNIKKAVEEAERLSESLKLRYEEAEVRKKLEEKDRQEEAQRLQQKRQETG
The experiment in a line: proteomic peptide-phage display (ProP-PD) selection; 10 µg GST-tagged bait immobilised on MaxiSorp plate; M13 phage library of the human disorderome pre-cleared on GST; four rounds, PBS, 2 h at 4 °C; enriched pools read by NGS; only the target purified.

For one substance, binding results are on record in PMC12057046, “Elucidation of short linear motif-based interactions of the MIT and rhodanese domains of the ubiquitin-specific protease 8” (Biology Direct, 2025).

Results are given in words; binding and its absence hold for the method and conditions named. In cells and extracts the contact can be indirect. These calls come from enrichment with a bait or labelling near it, and not all partners need be listed. Where a sequence is shown, tags or fusion partners need not be part of it.

Regarding “HIVEP1 741-756 peptide, displayed on M13 phage (from UniProt P15822 741-756)”, the binding entry is listed as “binds”.
